These results are taken from paper PMC9962204.

The chains behind the UniProt entries cited, without tags or fusion partners. Where a name states a change or a piece, a line headed by the entry shows the natural chain unless it says otherwise.
UniProt Q9SZY5: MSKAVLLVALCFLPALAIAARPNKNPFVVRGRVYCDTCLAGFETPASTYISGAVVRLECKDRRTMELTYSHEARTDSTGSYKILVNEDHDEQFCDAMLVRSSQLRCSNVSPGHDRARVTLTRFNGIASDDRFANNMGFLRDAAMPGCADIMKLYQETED

This test addresses AtSAH7-nCerulean (BiFC fusion, pSAT4-nCerulean-C) (Arabidopsis thaliana) (UniProt Q9SZY5). Description: split reporter; BiFC in living Arabidopsis mesophyll and root protoplasts; AtSBP1 fused to cCFP, AtSAH7 fused to nCerulean; fluorescence microscopy; three independent repetitions.

These are yes or no findings as the source states them, for the method shown. In cells and extracts the contact can be indirect. Binding calls can cover weak binding; strength is not graded here. Where a sequence is shown, tags or fusion partners need not be part of it.

B1: AtSBP1-cCFP (BiFC fusion, pSAT1-cCFP-N1) (protein, UniProt O23264 1-490)
chain: MATETEVVAPVTVSNGGSKGCCKYGGPGYATPLAAMSGPSEKLIYVTAVYTGTGIDKPDYLATVDVDPSSPSYSSVIHRLPMPFVGDELHHSGWNSCSSCHGDASVDRRYLVLPSLISGRIYAIDTKENPRAPSLYKYVDPKEIADKTGLAFPHTAHCLATGEILVSCLGDEEGNAKGNGFLLLDSDFNIKNRWEKPGHSPLYGYDFWYQPRHKTMISTSWGAPKAFSKGFNLQHVADGLYGSHLHVYSWPGGEIKQLIDLGPTGLLPLEIRFLHDPSKDTGFVGSALSSNMIRFFKNSDETWSHEVVISVKPLKVENWILPEMPGLITDFLISLDDRFIYFVNWLHGDIRQYNIEDPKNPVLTGQIWVGGLLQKGSPVKAVGEDGNTFQFEVPQIKGKSLRGGPQMIQLSLDGKRLYATNSLFSAWDRQFYPEIMEKGSHIIQIDVDTEKGGLTINPDFFVDFGDEPDGPSLAHEMRYPGGDCTSDIWI
With B1, the binding entry is “binds”.
